# Publication PMC5117210
# Numbering of substitutions follows the chain as printed. Names may count otherwise. Results are given in words; binding and its absence hold for the method and conditions named. In cells and extracts the contact can be indirect. Binding calls can cover weak binding; strength is not graded here. Tags and fused reporters may be left off the sequences shown.
# T1: recombinant glutathione S-transferase (GST)-tagged Rnd3 (UniProt P61588)
# T1 sequence: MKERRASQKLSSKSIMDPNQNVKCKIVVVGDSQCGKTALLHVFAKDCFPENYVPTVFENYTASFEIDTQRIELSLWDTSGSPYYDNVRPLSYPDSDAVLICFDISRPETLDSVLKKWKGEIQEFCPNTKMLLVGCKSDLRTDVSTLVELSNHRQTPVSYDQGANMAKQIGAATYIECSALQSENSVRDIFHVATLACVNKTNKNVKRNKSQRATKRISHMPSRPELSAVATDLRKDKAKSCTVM
# B1: FLAG–Rnd3ΔC (amino acids 1–200) (domain or fragment, UniProt P61588 1-200)
# chain: MKERRASQKLSSKSIMDPNQNVKCKIVVVGDSQCGKTALLHVFAKDCFPENYVPTVFENYTASFEIDTQRIELSLWDTSGSPYYDNVRPLSYPDSDAVLICFDISRPETLDSVLKKWKGEIQEFCPNTKMLLVGCKSDLRTDVSTLVELSNHRQTPVSYDQGANMAKQIGAATYIECSALQSENSVRDIFHVATLACVNK
# B2: FLAG–Rnd2 (protein, UniProt P52198 1-227)
# chain: MEGQSGRCKIVVVGDAECGKTALLQVFAKDAYPGSYVPTVFENYTASFEIDKRRIELNMWDTSGSSYYDNVRPLAYPDSDAVLICFDISRPETLDSVLKKWQGETQEFCPNAKVVLVGCKLDMRTDLATLRELSKQRLIPVTHEQGTVLAKQVGAVSYVECSSRSSERSVRDVFHVATVASLGRGHRQLRRTDSRRGMQRSAQLSGRPDRGNEGEIHKDRAKSCNLM
# B3: FLAG–Rnd3 (protein, UniProt P61588 1-244)
# chain: T1 sequence
# B4: FLAG–Rnd3-V87R (protein, UniProt P61588 1-244)
# chain: T1 sequence with V87R
# B5: FLAG–Rnd3-V56Y (protein, UniProt P61588 1-244)
# chain: T1 sequence with V56Y
# B6: FLAG–Rnd3ΔN (amino acids 16–244) (domain or fragment, UniProt P61588 16-244)
# chain: MDPNQNVKCKIVVVGDSQCGKTALLHVFAKDCFPENYVPTVFENYTASFEIDTQRIELSLWDTSGSPYYDNVRPLSYPDSDAVLICFDISRPETLDSVLKKWKGEIQEFCPNTKMLLVGCKSDLRTDVSTLVELSNHRQTPVSYDQGANMAKQIGAATYIECSALQSENSVRDIFHVATLACVNKTNKNVKRNKSQRATKRISHMPSRPELSAVATDLRKDKAKSCTVM
# B7: FLAG–Rnd1 (protein, UniProt Q92730 1-232)
# chain: MKERRAPQPVVARCKLVLVGDVQCGKTAMLQVLAKDCYPETYVPTVFENYTACLETEEQRVELSLWDTSGSPYYDNVRPLCYSDSDAVLLCFDISRPETVDSALKKWRTEILDYCPSTRVLLIGCKTDLRTDLSTLMELSHQKQAPISYEQGCAIAKQLGAEIYLEGSAFTSEKSIHSIFRTASMLCLNKPSPLPQKSPVRSLSKRLLHLPSRSELISSTFKKEKAKSCSIM
# Molecular target: HA-tagged cytoplasmic region of plexin-B2 (plexin-B2-cyto) (human)
# Assay: co-IP; lysates of co-transfected COS7 cells (20 mM Tris-HCl pH 8, 130 mM NaCl, 1% Triton X-100); anti-FLAG or anti-HA antibody on agarose beads, 2 h at 4°C; immunoblotting
row,Molecule,binding
1,B1,no binding
2,B2,binds
3,B3,binds
4,B4,no binding
5,B5,no binding
6,B6,binds
7,B7,binds weakly

# Molecular target: T1, recombinant glutathione S-transferase (GST)-tagged Rnd3
# Assay: pull-down; GST or GST–Rnd3 on glutathione–Sepharose beads incubated 2 h at 4°C with lysates of transfected COS7 cells (1% Triton X-100, 20 mM Tris-HCl pH 8, 130 mM NaCl); immunoblotting; only the target purified
row,Molecule,binding
1,HA-tagged cytoplasmic region of plexin-B2 (plexin-B2-cyto) (human) (domain or fragment),binds
